The experiment deals with T1, UCHL3-GFP (ubiquitin carboxyl-terminal hydrolase isozyme L3) (UniProt P15374).
T1 sequence: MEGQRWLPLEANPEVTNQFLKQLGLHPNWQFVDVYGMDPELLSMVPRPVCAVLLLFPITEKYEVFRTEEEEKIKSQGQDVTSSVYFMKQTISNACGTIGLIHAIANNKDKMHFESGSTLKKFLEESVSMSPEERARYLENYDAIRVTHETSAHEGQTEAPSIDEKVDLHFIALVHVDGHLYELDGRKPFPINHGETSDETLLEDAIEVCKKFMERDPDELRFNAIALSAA
Description: co-IP; HEK293T cells transfected with Myc-TDP1 and UCHL3-GFP; cells treated with DMSO or 10 uM CPT for 20 min; lysate adjusted to 150 mM NaCl, GFP-Trap beads overnight at 4 C; anti-Myc and anti-GFP immunoblotting. Background: Immunoblotting shows a protein as a band on a membrane.

Chains of the proteins cited; added tags and fusions are not shown.
UniProt Q9NUW8: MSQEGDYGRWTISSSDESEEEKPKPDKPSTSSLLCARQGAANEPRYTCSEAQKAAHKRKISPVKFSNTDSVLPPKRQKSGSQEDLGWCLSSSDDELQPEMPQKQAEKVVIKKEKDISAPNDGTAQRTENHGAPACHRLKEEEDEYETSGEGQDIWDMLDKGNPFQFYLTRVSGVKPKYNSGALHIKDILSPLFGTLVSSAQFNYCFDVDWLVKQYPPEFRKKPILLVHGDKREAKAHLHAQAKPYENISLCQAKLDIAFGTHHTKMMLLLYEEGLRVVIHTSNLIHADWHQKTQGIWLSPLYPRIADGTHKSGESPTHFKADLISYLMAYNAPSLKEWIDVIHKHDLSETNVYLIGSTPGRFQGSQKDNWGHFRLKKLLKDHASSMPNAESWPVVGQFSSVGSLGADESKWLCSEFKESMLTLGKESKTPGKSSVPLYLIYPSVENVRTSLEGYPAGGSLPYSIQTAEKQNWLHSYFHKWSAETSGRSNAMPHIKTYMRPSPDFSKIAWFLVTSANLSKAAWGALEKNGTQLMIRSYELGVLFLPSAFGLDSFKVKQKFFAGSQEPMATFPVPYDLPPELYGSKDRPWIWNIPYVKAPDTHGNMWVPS

This passage reports binding results from publication PMC6019701.

No constants are given. Whether binding was seen depends on the method and setting. Binding seen in cells or lysates may run through a third protein. Some results given as binding are weak or reduced against the parent protein; the word gives no strength. Sequences can lack the tags named with a protein.

Regarding “Myc-TDP1 (tyrosyl DNA phosphodiesterase 1) (from UniProt Q9NUW8 1-608) (enzyme)”, the binding entry is given as “binds”.
